# The list shows a part of the results.
# Amino acid sequences for entries named in this document (tags omitted). A change or cut given only in a name is not applied to a line headed by its entry.
# UniProt Q05639, whole entry, looked up: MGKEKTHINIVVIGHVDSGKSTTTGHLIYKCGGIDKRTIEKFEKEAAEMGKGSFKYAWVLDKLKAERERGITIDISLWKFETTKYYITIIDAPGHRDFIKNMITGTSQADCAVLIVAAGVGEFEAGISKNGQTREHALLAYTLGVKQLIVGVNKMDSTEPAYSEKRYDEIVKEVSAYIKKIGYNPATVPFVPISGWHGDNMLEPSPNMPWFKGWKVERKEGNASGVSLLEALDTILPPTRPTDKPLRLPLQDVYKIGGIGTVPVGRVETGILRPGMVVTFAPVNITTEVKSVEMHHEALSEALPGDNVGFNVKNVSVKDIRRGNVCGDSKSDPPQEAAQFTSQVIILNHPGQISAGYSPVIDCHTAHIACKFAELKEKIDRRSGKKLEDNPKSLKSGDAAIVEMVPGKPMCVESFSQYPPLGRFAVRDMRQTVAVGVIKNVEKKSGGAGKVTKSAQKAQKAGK
# UniProt Q08426: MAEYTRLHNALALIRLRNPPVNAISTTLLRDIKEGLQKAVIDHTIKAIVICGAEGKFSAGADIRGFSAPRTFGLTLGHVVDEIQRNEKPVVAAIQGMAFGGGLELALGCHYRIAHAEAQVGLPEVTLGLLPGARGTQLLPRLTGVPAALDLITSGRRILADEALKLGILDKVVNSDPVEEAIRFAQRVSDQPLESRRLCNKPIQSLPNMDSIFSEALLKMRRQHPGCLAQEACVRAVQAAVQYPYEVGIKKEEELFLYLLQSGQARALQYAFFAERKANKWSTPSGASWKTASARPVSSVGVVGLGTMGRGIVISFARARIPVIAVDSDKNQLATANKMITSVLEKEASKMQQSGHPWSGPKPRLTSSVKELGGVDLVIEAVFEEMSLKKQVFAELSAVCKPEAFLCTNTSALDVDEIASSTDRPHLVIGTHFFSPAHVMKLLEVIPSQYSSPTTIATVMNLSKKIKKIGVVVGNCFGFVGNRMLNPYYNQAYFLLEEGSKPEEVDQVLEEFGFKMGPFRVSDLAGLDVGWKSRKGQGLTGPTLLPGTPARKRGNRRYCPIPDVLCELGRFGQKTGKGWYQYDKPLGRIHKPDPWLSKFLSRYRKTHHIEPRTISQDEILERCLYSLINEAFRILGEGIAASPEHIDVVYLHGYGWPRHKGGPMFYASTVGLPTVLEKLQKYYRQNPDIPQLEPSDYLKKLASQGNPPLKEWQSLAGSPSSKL
# UniProt Q9H9T3: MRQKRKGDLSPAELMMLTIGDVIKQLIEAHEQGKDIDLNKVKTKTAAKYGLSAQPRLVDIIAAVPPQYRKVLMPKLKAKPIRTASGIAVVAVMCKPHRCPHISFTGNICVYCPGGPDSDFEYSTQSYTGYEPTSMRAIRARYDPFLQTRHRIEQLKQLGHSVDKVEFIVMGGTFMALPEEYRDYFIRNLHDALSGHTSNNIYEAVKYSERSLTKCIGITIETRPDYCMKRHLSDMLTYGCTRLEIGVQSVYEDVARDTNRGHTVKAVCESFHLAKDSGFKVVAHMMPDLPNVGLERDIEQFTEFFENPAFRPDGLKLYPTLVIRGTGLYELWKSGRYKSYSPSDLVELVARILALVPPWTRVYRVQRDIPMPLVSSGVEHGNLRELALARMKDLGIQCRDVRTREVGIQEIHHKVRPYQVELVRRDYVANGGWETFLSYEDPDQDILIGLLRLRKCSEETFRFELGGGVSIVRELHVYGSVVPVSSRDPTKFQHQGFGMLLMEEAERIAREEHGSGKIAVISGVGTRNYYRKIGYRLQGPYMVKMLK
# UniProt P47813, whole entry, looked up: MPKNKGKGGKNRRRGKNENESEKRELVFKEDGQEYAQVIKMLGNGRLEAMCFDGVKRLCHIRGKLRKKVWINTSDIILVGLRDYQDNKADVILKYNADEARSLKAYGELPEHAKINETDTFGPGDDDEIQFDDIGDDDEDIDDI
# UniProt P13929, whole entry, looked up: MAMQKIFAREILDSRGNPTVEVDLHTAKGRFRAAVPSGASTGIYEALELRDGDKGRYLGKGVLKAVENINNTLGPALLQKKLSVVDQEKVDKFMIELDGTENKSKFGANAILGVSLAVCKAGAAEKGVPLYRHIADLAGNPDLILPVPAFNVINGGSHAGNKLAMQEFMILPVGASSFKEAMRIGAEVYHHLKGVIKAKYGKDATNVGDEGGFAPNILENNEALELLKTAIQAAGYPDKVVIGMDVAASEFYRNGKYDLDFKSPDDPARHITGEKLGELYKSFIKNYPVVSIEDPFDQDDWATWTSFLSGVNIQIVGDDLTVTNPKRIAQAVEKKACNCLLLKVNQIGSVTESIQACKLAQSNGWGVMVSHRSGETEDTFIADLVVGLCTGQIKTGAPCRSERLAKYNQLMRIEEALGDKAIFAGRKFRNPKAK
# UniProt Q0PNE2: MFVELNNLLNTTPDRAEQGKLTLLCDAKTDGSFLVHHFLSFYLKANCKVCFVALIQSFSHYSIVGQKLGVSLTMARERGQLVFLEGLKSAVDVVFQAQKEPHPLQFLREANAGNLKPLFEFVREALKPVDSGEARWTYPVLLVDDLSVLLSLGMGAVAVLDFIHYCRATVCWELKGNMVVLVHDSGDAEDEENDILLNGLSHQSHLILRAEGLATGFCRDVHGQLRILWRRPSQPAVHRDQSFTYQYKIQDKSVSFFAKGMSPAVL
# UniProt Q13541: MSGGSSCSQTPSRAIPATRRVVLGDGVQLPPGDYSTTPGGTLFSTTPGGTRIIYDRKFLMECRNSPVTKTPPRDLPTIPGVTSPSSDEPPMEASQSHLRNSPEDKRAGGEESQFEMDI
# UniProt Q6IA86: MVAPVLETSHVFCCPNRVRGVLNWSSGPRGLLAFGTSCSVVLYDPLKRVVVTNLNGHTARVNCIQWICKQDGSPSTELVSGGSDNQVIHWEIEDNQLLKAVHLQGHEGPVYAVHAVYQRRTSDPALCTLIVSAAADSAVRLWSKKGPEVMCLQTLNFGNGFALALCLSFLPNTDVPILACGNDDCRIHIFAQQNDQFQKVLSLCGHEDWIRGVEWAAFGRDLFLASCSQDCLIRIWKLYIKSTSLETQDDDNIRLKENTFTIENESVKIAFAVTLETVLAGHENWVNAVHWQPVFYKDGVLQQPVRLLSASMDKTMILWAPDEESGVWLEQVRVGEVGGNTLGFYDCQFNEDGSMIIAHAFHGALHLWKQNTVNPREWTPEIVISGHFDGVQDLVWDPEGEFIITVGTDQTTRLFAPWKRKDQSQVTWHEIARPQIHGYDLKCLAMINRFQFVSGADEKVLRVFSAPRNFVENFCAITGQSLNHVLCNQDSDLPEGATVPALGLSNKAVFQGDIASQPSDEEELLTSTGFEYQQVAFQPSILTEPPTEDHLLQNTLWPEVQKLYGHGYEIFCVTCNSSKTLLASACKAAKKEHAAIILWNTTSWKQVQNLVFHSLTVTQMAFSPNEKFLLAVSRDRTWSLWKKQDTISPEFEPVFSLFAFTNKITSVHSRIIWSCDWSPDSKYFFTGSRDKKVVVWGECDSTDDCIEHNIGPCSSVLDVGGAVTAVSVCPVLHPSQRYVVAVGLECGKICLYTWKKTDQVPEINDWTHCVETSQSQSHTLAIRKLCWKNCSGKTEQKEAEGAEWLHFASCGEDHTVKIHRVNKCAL
# UniProt O43768: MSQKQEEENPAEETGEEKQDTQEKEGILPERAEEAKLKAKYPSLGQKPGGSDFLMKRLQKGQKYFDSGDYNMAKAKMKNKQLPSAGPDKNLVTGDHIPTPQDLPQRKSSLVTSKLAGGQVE
# UniProt Q9GZT9: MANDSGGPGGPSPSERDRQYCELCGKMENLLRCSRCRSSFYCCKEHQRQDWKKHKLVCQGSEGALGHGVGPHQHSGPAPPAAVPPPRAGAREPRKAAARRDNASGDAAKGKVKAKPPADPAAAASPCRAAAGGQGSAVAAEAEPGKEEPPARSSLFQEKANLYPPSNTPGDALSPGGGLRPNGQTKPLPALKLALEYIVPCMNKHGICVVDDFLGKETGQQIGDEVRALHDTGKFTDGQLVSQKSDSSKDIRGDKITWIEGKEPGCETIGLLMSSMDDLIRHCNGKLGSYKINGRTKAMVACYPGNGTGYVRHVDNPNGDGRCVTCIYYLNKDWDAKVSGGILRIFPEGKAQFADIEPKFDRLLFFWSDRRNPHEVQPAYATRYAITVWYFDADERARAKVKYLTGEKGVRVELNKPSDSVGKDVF
# UniProt Q32P44: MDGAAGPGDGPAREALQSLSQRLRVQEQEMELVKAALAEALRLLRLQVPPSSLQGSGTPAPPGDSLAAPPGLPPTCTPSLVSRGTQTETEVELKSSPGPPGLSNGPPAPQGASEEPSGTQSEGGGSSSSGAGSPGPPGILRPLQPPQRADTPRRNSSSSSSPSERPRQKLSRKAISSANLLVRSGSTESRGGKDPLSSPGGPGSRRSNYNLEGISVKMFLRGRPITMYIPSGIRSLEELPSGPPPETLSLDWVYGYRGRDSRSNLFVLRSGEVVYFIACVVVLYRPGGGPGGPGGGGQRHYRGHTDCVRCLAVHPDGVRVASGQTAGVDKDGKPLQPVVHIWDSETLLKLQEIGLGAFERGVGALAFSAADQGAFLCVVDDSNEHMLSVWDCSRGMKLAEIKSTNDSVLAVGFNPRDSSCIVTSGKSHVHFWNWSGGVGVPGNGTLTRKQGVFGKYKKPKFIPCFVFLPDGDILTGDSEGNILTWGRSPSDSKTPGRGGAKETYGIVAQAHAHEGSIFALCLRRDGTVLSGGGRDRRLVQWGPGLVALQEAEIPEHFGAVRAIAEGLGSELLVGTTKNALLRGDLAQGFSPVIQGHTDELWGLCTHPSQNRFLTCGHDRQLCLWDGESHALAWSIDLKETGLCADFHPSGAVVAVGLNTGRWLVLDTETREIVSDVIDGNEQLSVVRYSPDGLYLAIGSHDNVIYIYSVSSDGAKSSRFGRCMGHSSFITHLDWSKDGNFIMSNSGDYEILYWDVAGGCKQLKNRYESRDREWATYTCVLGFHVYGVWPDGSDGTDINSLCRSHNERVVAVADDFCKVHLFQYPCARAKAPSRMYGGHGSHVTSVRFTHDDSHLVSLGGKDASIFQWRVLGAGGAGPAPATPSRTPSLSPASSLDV
# UniProt Q7L5Y1: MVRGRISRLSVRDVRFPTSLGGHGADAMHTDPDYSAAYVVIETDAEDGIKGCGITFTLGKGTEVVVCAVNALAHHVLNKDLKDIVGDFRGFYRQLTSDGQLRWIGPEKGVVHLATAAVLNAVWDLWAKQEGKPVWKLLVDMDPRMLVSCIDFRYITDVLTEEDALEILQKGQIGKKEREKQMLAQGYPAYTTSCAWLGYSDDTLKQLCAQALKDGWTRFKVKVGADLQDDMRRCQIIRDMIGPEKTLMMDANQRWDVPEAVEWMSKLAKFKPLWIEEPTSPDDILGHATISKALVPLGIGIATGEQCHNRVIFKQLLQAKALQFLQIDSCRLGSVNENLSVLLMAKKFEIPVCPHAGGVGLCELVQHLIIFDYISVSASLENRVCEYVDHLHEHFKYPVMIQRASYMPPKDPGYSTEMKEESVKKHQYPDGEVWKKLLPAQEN
# UniProt O75822, whole entry, looked up: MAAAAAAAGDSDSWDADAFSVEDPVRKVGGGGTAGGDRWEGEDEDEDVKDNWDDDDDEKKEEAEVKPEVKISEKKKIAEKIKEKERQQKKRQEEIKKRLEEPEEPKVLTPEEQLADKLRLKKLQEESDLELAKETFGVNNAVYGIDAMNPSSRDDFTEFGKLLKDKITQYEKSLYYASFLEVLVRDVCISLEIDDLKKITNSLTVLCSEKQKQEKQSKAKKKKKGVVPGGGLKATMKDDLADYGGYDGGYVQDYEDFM
# UniProt P24534: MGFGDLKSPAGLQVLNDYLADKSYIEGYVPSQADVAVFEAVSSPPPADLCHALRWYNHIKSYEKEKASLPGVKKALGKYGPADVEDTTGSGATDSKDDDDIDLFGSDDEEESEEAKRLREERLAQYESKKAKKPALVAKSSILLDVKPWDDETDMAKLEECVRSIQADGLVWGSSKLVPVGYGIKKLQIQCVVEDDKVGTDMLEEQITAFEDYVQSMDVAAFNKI
# UniProt Q5UCC4: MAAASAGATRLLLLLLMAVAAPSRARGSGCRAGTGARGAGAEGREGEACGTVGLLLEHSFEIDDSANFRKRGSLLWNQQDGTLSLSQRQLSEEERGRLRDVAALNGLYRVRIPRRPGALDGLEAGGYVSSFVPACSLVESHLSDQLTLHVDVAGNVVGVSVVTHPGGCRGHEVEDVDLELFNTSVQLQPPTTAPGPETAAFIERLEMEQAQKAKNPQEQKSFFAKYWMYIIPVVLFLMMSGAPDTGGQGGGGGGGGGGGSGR
# UniProt O60573: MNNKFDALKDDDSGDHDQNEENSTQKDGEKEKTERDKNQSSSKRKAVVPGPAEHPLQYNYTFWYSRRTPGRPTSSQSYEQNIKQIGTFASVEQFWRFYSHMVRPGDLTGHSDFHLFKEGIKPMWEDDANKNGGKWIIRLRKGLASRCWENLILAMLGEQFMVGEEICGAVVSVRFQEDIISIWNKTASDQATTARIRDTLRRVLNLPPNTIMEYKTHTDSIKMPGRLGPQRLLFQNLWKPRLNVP
# UniProt P54852: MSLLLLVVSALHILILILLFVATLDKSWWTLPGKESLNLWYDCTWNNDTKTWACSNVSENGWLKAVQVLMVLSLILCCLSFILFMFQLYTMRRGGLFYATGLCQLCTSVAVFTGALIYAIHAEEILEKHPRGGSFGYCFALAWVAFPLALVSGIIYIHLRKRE
# Compound: c1ccc([C@@H]2C[C@H]2NC2CCNCC2)cc1
# Experiment: log2 fold change, soluble protein after heating vs DMSO (PISA); higher = thermal stabilisation; K562 cells, 10 uM, 30 min; active = over 0.2 and 3.5 SD of the protein, either way, in both replicates (recomputed)
# Summary of the method: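 Aliquots of K562 cells (2×10^6 cells/mL) treated with 10 μM compound for 30 min were heated for 3 min over 48°C-58°C. After pooling and extraction in PBS with 0.5% NP-40 at 4°C, soluble protein from a 21,000xg, 90 min spin was quantified by TMTpro 16plex LC-MS/MS with channel sums equalised. Thermal stability is expressed against control samples, from duplicates, as a log2 fold change.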
row,Target,log2 fold change
1,ENO1 (UniProt P06733),inactive: 0.002
2,EIF2S3 (UniProt P41091),inactive: -0.002
3,EEF1A2 (UniProt Q05639),inactive: -0.029
4,EHHADH (UniProt Q08426),inactive: -0.031
5,ELP3 (UniProt Q9H9T3),inactive: -0.024
6,ENO1 isoform 2 (UniProt P06733),inactive: -0.091
7,EIF1AX (UniProt P47813),inactive: 0.008
8,ENO3 (UniProt P13929),inactive: -0.005
9,ELP6 (UniProt Q0PNE2),inactive: 0.01
10,EIF4EBP1 (UniProt Q13541),inactive: 0.023
11,EIF4B (UniProt P23588),inactive: 0.01
12,ELP2 isoform 6 (UniProt Q6IA86),inactive: 0.001
13,ENSA isoform 3 (UniProt O43768),inactive: 0.011
14,EEF2 (UniProt P13639),inactive: 0.012
15,EEF1A1 (UniProt P68104),inactive: -0.471
16,EGLN1 (UniProt Q9GZT9),inactive: 0.019
17,EML3 isoform 2 (UniProt Q32P44),inactive: 0.011

row,Target,log2 fold change
1,ENOSF1 (UniProt Q7L5Y1),inactive: 0.033
2,"EPB41, A0A2R8Y6D0",inactive: 0.118
3,EIF3A (UniProt Q14152),inactive: -0.063
4,EMC4 (UniProt Q5J8M3),inactive: -0.05
5,EPB41 (UniProt P11171),inactive: -0.005
6,EIF3J (UniProt O75822),inactive: -0.035
7,ENGASE (UniProt Q8NFI3),inactive: -0.072
8,EMC8 (UniProt O43402),inactive: 0.02
9,EEF1B2 (UniProt P24534),inactive: -0.034
10,EMC10 (UniProt Q5UCC4),inactive: -0.048
11,EIF3D (UniProt O15371),inactive: 0.008
12,EIF4G3 isoform 3 (UniProt O43432),inactive: -0.06
13,EIF4E2 (UniProt O60573),inactive: 0.055
14,EMP3 (UniProt P54852),inactive: 0.033
15,EIF3E (UniProt P60228),inactive: -0.005
16,ELMOD2 (UniProt Q8IZ81),inactive: -0.018

# Already shown: entries from further up.
row,Target,log2 fold change
9,EEF1B2 (UniProt P24534),inactive: -0.034
10,EMC10 (UniProt Q5UCC4),inactive: -0.048
11,EIF3D (UniProt O15371),inactive: 0.008
12,EIF4G3 isoform 3 (UniProt O43432),inactive: -0.06
13,EIF4E2 (UniProt O60573),inactive: 0.055
14,EMP3 (UniProt P54852),inactive: 0.033
15,EIF3E (UniProt P60228),inactive: -0.005

# From the supplement of paper PMC10849652
